Some of the results follow.

Common to all, as to assay: protein microarray (ProtoArray v5.0), streptavidin-Alexa Fluor 647
Holding throughout (conditions): 3'-biotin; 20 mM Tris (pH 7.5), 5 mM MgCl2, 100 mM KCl, 0.1% Tween-20, A/T-rich and random oligonucleotide blockers; temperature not stated; high values mean tight binding

Experiment [1] relates to Caspase recruitment domain-containing protein 14 (human).
Experiment [2] relates to Cathepsin Z (human).
Experiment [3] has as its system Cbp/p300-interacting transactivator 1 (human).
In experiment [4] the test system is Cell division cycle 7-related protein kinase (human).
For experiment [5], the system named is Centromere protein Q (human).
Experiment [6] relates to Ciliary neurotrophic factor (human).
Experiment [7] concerns Coiled-coil domain-containing protein 115 (human).
In experiment [8] the test system is Coiled-coil domain-containing protein 28A (human).
In experiment [9] the test system is Coiled-coil domain-containing protein 6 (human).
Experiment [10] relates to Cyclin-Y (human).
Experiment [11] concerns Cyclin-dependent kinase-like 1 (human).
The subject of experiment [12] is Cyclin-dependent kinase-like 3 (human).
Experiment [13] deals with Cystathionine beta-synthase (human).
Experiment [14] deals with Cytochrome b-c1 complex subunit 6, mitochondrial (human).
Experiment [15] deals with Cytoglobin (human).
The subject of experiment [16] is Cytoplasmic dynein 1 heavy chain 1 (human).
For experiment [17], the system named is Cytosolic non-specific dipeptidase (human).
The test system of experiment [18] is DAZ-associated protein 2 (human).
The test system of experiment [19] is DBNDD1 (human).
For experiment [20], the system named is DBNDD2 (human).

Take “GGGGACAGGGGTATGGGGAGGGG [G4-3 biotinylated (CtG)]”: the binding signal in [1] was -0.32 z-score; in [2], -0.315 z-score; in [3], -0.333 z-score; in experiment [4], 3.46 z-score; in experiment [5], -0.35 z-score; in experiment [6], -0.32 z-score. For the same sequence, the binding signal in [7] was -0.336 z-score; in experiment [8], 8.15 z-score; in experiment [9], -0.304 z-score; in experiment [10], -0.329 z-score; in [11] it was 4.29 z-score; in [12], 5.63 z-score. Moreover, the binding signal was -0.342 z-score in experiment [13]; -0.313 z-score in experiment [14]; -0.334 z-score in experiment [15]; -0.332 z-score in [16]; -0.333 z-score in experiment [17]; -0.334 z-score in experiment [18]. Also, the binding signal is -0.332 z-score in experiment [19] and -0.327 z-score in [20].

These data come from PMC5996148.
